The assay concerns the target T1, GST-Cpn0803 (Chlamydia pneumoniae CWL029) (UniProt Q9Z7A3).
T1 sequence: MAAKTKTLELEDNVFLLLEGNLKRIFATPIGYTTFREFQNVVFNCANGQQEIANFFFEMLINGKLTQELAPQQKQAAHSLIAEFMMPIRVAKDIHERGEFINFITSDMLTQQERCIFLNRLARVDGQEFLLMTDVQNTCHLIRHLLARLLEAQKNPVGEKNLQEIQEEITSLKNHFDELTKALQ
Put plainly: pull-down; C. pneumoniae EB lysate (PBS, 1% Triton X-100) incubated with recombinant GST-tagged proteins for 6 h, glutathione agarose beads overnight; washed with 500 mM NaCl; Western blot with anti-Cpn0803; only the target purified. (In general: In western blotting, separated proteins are transferred to a membrane and probed.)

Results are given in words; binding and its absence hold for the method and conditions named. Binding seen in cells or lysates may run through a third protein. Some results given as binding are weak or reduced against the parent protein; the word gives no strength. Tags and fused reporters may be left off the sequences shown.

B1: native Cpn0803 (protein, UniProt Q9Z7A3 1-184)
chain: MAAKTKTLELEDNVFLLLEGNLKRIFATPIGYTTFREFQNVVFNCANGQQEIANFFFEMLINGKLTQELAPQQKQAAHSLIAEFMMPIRVAKDIHERGEFINFITSDMLTQQERCIFLNRLARVDGQEFLLMTDVQNTCHLIRHLLARLLEAQKNPVGEKNLQEIQEEITSLKNHFDELTKALQ
In the case of B1, the binding entry is “binds”.

The values above are taken from PMC3260263, “Structural Characterization of a Novel Chlamydia pneumoniae Type III Secretion-Associated Protein, Cpn0803” (PLoS ONE, 2012).
